{
  "sequences": {"note": "Protein sequences, listed by entry. Tags and fused reporters are not part of them. Lines headed by an entry give the natural chain unless they say otherwise; changes in a name come on top.", "UniProt Q08426": "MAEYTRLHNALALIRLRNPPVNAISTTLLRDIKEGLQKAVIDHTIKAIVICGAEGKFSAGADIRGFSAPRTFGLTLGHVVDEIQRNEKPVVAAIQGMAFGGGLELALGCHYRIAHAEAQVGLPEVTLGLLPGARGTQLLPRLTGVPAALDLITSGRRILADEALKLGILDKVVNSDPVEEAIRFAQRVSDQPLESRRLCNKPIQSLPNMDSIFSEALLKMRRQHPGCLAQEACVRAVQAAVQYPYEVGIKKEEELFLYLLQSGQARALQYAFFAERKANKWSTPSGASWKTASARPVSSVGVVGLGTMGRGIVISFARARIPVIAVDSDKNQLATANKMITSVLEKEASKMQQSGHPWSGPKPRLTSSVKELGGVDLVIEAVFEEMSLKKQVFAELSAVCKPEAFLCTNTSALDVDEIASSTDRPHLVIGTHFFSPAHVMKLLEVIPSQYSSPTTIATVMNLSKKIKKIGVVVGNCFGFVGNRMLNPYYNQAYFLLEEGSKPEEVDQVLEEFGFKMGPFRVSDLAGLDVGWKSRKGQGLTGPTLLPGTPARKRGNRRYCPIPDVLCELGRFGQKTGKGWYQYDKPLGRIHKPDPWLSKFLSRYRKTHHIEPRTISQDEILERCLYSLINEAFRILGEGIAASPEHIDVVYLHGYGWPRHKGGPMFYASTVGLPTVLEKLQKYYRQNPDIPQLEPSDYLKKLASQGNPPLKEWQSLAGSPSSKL", "UniProt O43324": "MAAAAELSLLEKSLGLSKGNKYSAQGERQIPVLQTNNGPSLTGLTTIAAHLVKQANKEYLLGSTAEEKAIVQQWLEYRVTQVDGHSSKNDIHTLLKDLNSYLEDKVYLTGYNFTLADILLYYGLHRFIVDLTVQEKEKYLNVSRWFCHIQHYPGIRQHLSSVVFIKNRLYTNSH", "UniProt P20042, whole entry, looked up": "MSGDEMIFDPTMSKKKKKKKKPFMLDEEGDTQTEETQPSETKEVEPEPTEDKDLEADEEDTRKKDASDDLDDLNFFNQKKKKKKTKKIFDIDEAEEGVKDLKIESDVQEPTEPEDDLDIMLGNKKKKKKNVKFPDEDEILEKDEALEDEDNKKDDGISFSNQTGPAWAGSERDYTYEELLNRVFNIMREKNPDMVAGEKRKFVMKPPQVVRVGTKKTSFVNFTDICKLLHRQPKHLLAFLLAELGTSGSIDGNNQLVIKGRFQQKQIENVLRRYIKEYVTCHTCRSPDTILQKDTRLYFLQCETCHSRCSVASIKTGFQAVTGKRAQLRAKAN", "UniProt Q12805": "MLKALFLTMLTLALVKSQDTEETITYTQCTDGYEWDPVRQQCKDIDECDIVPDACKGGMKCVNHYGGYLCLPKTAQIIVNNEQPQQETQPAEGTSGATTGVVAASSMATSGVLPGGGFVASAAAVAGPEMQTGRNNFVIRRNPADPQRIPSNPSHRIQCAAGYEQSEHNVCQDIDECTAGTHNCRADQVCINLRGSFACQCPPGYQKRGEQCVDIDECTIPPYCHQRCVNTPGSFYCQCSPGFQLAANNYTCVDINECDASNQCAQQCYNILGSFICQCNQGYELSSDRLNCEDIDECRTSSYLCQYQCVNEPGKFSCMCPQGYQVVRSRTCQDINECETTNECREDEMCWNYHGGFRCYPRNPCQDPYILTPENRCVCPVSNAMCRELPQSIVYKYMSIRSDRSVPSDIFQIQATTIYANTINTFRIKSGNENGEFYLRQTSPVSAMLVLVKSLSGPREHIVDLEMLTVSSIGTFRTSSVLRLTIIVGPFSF", "UniProt O95905": "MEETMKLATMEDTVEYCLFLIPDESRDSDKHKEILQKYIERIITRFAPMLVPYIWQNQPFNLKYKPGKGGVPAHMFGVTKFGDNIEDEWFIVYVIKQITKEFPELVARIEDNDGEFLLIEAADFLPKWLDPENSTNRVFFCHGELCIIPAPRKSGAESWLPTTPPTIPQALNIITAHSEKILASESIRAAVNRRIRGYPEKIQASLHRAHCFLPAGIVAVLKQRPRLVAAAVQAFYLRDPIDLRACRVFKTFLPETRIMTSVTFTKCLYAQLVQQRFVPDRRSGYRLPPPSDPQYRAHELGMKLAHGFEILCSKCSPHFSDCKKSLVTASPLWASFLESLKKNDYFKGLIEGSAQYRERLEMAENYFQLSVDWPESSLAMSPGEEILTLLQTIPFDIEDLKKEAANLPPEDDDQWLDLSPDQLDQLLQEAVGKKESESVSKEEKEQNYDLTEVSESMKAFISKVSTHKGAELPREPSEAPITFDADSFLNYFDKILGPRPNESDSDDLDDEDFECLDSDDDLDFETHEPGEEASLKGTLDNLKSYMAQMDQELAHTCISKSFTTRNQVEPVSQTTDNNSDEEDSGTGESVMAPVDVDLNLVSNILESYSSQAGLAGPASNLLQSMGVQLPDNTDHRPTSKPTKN", "UniProt P68104, whole entry, looked up": "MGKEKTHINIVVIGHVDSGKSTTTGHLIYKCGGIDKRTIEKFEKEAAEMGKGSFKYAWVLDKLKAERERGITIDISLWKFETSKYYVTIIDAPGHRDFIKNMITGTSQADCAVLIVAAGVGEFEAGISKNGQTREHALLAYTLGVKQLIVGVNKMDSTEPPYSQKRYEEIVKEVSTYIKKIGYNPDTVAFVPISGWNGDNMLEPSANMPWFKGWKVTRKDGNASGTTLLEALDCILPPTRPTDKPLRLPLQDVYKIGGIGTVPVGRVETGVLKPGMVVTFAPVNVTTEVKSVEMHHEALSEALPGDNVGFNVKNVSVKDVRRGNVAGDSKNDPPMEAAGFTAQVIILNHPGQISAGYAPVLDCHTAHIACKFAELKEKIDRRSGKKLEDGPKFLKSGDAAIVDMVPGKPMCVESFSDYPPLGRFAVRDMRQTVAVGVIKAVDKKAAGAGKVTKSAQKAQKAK", "UniProt Q13011": "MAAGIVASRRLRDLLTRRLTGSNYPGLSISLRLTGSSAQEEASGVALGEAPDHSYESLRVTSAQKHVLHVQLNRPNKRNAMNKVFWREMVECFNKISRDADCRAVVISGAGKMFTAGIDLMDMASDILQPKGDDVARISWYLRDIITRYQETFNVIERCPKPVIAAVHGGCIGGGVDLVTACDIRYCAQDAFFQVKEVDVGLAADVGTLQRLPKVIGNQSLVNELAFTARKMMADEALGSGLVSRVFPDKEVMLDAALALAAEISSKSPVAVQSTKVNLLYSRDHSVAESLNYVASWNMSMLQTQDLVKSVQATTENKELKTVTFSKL", "UniProt Q9P2K8": "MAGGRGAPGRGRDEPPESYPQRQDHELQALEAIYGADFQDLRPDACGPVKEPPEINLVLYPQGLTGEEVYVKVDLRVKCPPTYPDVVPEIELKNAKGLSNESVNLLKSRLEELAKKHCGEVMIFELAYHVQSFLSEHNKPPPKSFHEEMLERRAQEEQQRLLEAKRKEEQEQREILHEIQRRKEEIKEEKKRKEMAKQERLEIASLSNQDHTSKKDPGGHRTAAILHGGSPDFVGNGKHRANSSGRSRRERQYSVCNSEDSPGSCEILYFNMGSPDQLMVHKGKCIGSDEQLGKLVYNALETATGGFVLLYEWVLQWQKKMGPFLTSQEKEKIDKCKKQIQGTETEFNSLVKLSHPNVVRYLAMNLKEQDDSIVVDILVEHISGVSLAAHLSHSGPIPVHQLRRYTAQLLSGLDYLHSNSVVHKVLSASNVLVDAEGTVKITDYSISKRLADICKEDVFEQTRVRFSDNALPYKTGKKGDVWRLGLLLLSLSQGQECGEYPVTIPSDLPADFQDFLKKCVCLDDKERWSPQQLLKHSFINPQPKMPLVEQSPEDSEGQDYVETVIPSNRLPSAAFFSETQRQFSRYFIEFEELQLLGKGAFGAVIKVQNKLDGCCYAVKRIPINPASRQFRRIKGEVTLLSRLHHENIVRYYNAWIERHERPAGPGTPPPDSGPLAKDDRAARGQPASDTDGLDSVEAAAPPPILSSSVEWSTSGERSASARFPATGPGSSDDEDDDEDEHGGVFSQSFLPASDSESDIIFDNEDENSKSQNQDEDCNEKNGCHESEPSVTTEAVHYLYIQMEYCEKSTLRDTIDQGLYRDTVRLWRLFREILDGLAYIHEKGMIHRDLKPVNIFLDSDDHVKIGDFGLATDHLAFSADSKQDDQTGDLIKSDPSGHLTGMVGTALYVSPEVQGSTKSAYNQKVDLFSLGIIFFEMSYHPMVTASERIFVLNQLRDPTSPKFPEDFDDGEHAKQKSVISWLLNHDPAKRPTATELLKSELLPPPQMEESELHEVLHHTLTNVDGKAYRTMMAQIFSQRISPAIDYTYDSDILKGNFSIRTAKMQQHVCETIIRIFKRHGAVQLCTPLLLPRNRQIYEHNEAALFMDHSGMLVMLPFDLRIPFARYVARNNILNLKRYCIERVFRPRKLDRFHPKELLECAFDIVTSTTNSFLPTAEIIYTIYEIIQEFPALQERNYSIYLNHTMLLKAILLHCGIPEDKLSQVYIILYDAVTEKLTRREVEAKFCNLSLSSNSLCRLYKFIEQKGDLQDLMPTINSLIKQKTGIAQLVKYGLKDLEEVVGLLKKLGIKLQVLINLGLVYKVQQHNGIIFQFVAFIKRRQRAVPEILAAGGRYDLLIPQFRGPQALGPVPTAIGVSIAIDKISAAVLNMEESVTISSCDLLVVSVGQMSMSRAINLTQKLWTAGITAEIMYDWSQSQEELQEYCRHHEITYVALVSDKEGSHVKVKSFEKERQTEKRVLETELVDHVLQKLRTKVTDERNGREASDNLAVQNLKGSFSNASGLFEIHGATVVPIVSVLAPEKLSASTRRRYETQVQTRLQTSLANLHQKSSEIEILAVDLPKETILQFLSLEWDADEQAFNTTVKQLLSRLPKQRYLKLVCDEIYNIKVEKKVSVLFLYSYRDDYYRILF", "UniProt P30084": "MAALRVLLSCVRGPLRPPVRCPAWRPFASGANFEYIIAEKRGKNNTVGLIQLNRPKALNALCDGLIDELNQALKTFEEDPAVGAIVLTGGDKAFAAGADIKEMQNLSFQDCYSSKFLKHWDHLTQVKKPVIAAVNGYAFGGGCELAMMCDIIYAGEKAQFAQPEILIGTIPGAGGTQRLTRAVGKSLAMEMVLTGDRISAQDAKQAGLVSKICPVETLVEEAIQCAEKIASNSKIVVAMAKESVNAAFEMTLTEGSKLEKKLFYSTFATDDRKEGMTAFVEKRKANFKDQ", "UniProt Q6P2E9": "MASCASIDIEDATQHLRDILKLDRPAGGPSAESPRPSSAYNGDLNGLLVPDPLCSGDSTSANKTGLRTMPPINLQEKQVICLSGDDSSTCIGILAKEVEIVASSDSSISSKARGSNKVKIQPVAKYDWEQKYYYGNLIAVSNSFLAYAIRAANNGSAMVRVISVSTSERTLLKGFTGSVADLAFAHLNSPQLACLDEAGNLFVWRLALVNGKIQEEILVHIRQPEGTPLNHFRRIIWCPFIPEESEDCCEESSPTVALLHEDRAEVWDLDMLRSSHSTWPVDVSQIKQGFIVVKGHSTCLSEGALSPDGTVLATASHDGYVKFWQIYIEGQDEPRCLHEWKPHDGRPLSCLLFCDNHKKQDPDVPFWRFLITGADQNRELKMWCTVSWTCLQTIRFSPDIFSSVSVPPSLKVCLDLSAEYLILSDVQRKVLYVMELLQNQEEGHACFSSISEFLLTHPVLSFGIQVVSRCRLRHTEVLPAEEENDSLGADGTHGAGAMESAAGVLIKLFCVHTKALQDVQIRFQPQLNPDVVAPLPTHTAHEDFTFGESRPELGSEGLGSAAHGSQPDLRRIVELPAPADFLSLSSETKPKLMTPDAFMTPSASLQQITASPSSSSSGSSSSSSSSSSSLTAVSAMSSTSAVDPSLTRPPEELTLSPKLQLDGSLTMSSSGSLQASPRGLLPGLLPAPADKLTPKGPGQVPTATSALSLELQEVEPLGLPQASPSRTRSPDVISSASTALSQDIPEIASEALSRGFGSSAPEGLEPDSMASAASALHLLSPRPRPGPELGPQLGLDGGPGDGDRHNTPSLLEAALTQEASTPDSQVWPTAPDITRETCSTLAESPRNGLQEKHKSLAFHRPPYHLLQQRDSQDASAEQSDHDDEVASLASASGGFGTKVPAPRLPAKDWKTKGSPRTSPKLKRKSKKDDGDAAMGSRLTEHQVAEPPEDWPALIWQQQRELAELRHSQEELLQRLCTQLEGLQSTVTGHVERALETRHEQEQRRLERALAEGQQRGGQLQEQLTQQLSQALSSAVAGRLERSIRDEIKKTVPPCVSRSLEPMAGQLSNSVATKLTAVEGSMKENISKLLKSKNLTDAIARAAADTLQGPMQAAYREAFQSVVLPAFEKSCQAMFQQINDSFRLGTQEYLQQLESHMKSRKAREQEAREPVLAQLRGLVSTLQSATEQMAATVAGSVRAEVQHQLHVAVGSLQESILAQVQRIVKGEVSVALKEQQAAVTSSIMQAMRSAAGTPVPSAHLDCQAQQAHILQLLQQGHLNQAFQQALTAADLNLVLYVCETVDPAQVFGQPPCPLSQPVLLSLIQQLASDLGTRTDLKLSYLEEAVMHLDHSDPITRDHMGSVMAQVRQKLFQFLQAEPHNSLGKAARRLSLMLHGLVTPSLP"},
  "source": "the supplement of paper PMC12067093",
  "about": "“Discovery and optimisation of a covalent ligand for TRIM25 and its application to targeted protein ubiquitination” (Chemical Science, 2025)",
  "note": "Some of the results follow.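 Note: competitive chemoproteomic profiling in live THP-1 cells with an iodoacetamide desthiobiotin (IA-DTB) probe, comparing probe-labelled peptide intensities in compound-treated cells against DMSO-treated controls.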",
  "data": [
    {"compound": "CC1Cc2ccccc2N1C(=O)C1CCCN(C1)C(=O)CCl (mixture of isomers) [TRIM25 ligand 11 (diastereomer mixture)]", "assay": "probe-labelled cysteine peptide fold change vs DMSO (competition) (log2 fold change); higher = less target engagement (more negative = stronger competition)", "conditions": "50 µM; THP-1; incubation time: 4 h", "values": [
      {"target": "EHHADH_Q08426_199_RLCNKPIQSLPNMDSIFSEALLK (UniProt Q08426)", "probe-labelled cysteine peptide fold change": -0.026},
      {"target": "ECT2_Q9H8V3_796_HVANTICK (UniProt Q9H8V3)", "probe-labelled cysteine peptide fold change": 0.0725},
      {"target": "EFHD2_Q96C19_172_KAAAGELQEDSGLCVLAR (UniProt Q96C19)", "probe-labelled cysteine peptide fold change": -0.399},
      {"target": "EEF1E1_O43324_147_WFCHIQHYPGIR (UniProt O43324)", "probe-labelled cysteine peptide fold change": 0.195},
      {"target": "EIF2S2_P20042_305_LYFLQCETCHSR (UniProt P20042)", "probe-labelled cysteine peptide fold change": 0.162},
      {"target": "EFEMP1_Q12805_377_CVCPVSNAMCR (UniProt Q12805)", "probe-labelled cysteine peptide fold change": 0.167},
      {"target": "ECD_O95905_312_LAHGFEILCSK (UniProt O95905)", "probe-labelled cysteine peptide fold change": -0.143},
      {"target": "EEF1A1_P68104_234_DGNASGTTLLEALDCILPPTR (UniProt P68104)", "probe-labelled cysteine peptide fold change": -0.204},
      {"target": "ECH1_Q13011_92_EMVECFNK (UniProt Q13011)", "probe-labelled cysteine peptide fold change": 0.0591},
      {"target": "ECH1_Q13011_159_CPKPVIAAVHGGCIGGGVDLVTACDIR (UniProt Q13011)", "probe-labelled cysteine peptide fold change": -0.0424},
      {"target": "EIF2AK4_Q9P2K8_285_CIGSDEQLGK (UniProt Q9P2K8)", "probe-labelled cysteine peptide fold change": 0.0778},
      {"target": "EDC3_Q96F86_311_LEMTGVCASQMALTLLGGPNR (UniProt Q96F86)", "probe-labelled cysteine peptide fold change": -0.14},
      {"target": "ECH1_Q13011_187_YCAQDAFFQVK (UniProt Q13011)", "probe-labelled cysteine peptide fold change": 0.0683},
      {"target": "ECHS1_P30084_213_ICPVETLVEEAIQCAEK (UniProt P30084)", "probe-labelled cysteine peptide fold change": -0.0881},
      {"target": "EDC4_Q6P2E9_838_ETCSTLAESPR (UniProt Q6P2E9)", "probe-labelled cysteine peptide fold change": -0.146}
    ]}
  ]
}
